Test results taken from patent US20050153276A1 (priority 2001, published 2005).
At least one compound was matched to its structure with a doubt left.

Test system: cells (metabolic pathways)
Format: cell-based

O=[N+]([O-])c1ccc(O)c([N+](=O)[O-])c1 [DNP, Dinitrophenol]
glucose uptake: increases significantly | lactate release: increases only slightly | oxygen consumption: rise
